This passage reports binding results from publication PMC10879859.

In the experiment the target is T1, choline-ethanolamine phosphotransferase 1 (CEPT1) (human (endogenous in 293T)) (UniProt Q9Y6K0).
T1 sequence: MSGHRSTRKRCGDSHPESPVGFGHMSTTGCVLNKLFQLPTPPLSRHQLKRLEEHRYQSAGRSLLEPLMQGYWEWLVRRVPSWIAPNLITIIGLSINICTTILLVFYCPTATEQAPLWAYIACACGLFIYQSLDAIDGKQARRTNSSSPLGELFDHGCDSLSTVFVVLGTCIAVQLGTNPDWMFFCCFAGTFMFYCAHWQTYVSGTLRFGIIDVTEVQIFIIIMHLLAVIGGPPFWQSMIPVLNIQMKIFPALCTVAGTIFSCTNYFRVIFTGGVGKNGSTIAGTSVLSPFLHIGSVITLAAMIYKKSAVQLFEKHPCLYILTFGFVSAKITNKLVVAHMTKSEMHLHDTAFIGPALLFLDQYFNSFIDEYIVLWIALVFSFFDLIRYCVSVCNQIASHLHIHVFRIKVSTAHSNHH
Briefly: co-IP; co-IP of CEPT1 with immunoblot for CCTα and CK, with or without 1 mM Ca^2+; CEPT1-ablated cells as control.

These are yes or no findings as the source states them, for the method shown. In cells and extracts the contact can be indirect. Binding can be weak; no strength is given.

In the case of “choline kinase (CK) (human (endogenous in 293T)) (enzyme)”, the binding result is “binds”.
